Results taken from paper PMC10284605.
These are yes or no findings as the source states them, for the method shown. In cells and extracts the contact can be indirect. Some binding calls cover weakened binding; strength is not graded here.

By UniProt entry, the sequences of proteins in these tests, tags left out. Where a name states a change or a piece, a line headed by the entry shows the natural chain unless it says otherwise.
UniProt O55242: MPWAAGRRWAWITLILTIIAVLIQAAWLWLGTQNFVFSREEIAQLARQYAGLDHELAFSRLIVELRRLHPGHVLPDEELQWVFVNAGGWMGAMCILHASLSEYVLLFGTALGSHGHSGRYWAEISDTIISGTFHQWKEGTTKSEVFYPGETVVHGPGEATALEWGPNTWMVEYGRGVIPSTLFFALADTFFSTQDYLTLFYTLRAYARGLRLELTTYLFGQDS

Biological target: S1R-Apex (mouse) (UniProt O55242)
Assay: co-IP; Lysate of HeLa cells stably expressing S1R-Apex in 0.2% CHAPS, 50 mM Tris-Cl pH 7.5, 150 mM NaCl, 1 mM EDTA; anti-V5 precipitates S1R-Apex, anti-HA as control; protein-A agarose, 4 C; Western blot

binding: binds weakly
B1: Calnexin (protein, UniProt P27824 21-592)
chain: HDGHDDDVIDIEDDLDDVIEEVEDSKPDTTAPPSSPKVTYKAPVPTGEVYFADSFDRGTLSGWILSKAKKDDTDDEIAKYDGKWEVEEMKESKLPGDKGLVLMSRAKHHAISAKLNKPFLFDTKPLIVQYEVNFQNGIECGGAYVKLLSKTPELNLDQFHDKTPYTIMFGPDKCGEDYKLHFIFRHKNPKTGIYEEKHAKRPDADLKTYFTDKKTHLYTLILNPDNSFEILVDQSVVNSGNLLNDMTPPVNPSREIEDPEDRKPEDWDERPKIPDPEAVKPDDWDEDAPAKIPDEEATKPEGWLDDEPEYVPDPDAEKPEDWDEDMDGEWEAPQIANPRCESAPGCGVWQRPVIDNPNYKGKWKPPMIDNPSYQGIWKPRKIPNPDFFEDLEPFRMTPFSAIGLELWSMTSDIFFDNFIICADRRIVDDWANDGWGLKKAADGAAEPGVVGQMIEAAEERPWLWVVYILTVALPVFLVILFCCSGKKQTSGMEYKKTDAPQPDVKEEEEEKEEEKDKGDEEEEGEEKLEEKQKSDAEEDGGTVSQEEEDRKPKAEEDEILNRSPRNRKPRRE
